Results deposited as PubChem BioAssay AID1159584 (Peter MacCallum Cancer Centre, 2016)

Aim: 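Knock-downs that harm CDH1-null cells more than parental MCF10A cells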 (primary screen)
Cell system: human MCF10A breast epithelial cells, parental and CDH1-null
Reagents: siRNA against human genes
Measured: 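ATP luminescence (CellTiter-Glo) viability per line relative to mean mock wells over all plates, and the ratio of CDH1-null to parental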
Scale: CDH1-null / parental viability ratio: higher = CDH1-null cells survive relatively better than parental; CDH1-null viability vs mock: higher = more viable CDH1-null cells; parental viability vs mock: higher = more viable parental cells
This is an unselected part of about 18,000 deposited reagents. Not stated in the record: the amount of reagent, the time to read-out.

no.	gene	CDH1-null / parental viability ratio	CDH1-null viability vs mock (fraction of mock)	parental viability vs mock (fraction of mock)
1	ZER1 (zyg-11 related cell cycle regulator)	0.91	0.78	0.86
2	GIMAP4 (GTPase, IMAP family member 4)	0.99	0.76	0.77
3	TMTC3 (transmembrane O-mannosyltransferase targeting cadherins 3)	1.09	0.94	0.86
4	CNTRL (centriolin)	0.84	0.86	1.02
5	INHA (inhibin subunit alpha)	0.79	0.74	0.94
6	GRAMD1A (GRAM domain containing 1A)	0.88	1.01	1.15
7	PCDHGA10 (protocadherin gamma subfamily A, 10)	1.4	0.8	0.57
8	TUBAL3 (tubulin alpha like 3)	0.9	0.78	0.87
9	STOX1 (storkhead box 1)	1.04	1.12	1.08
10	BTN3A2 (butyrophilin subfamily 3 member A2)	0.9	0.54	0.6
11	C1orf115 (chromosome 1 open reading frame 115)	0.85	0.87	1.02
12	ZNF773 (zinc finger protein 773)	0.87	0.58	0.67
13	MCMDC2 (minichromosome maintenance domain containing 2)	0.97	0.87	0.9
14	BEST4 (bestrophin 4)	0.95	0.9	0.95
15	COL27A1 (collagen type XXVII alpha 1 chain)	0.85	0.66	0.78
16	TGOLN2 (trans-golgi network protein 2)	1.06	0.74	0.7
17	CEBPA (CCAAT enhancer binding protein alpha)	0.79	0.57	0.72
18	CCDC141 (coiled-coil domain containing 141)	1.14	0.75	0.66
19	MON1A (MON1 vesicular trafficking associated A)	1.33	1.1	0.83
20	AAAS (aladin WD repeat nucleoporin)	0.98	0.59	0.6
21	NOL8 (nucleolar protein 8)	1.53	0.92	0.6
22	KCNH4 (potassium voltage-gated channel subfamily H member 4)	1.13	0.88	0.78
23	CAPZA3 (capping actin protein of muscle Z-line subunit alpha 3)	1.02	0.88	0.86
24	SPOCD1 (SPOC domain containing 1)	1.17	0.56	0.48
25	AMMECR1 (AMMECR nuclear protein 1)	1.15	1.06	0.92
26	TNFAIP8 (TNF alpha induced protein 8)	0.89	0.57	0.64
27	CDIN1 (CDAN1 interacting nuclease 1)	1.44	0.52	0.36
28	PKP3 (plakophilin 3)	0.75	0.65	0.87
29	CMTM8 (CKLF like MARVEL transmembrane domain containing 8)	0.96	0.77	0.8
30	TLR4 (toll like receptor 4)	0.8	0.6	0.75
31	EEF1A1 (eukaryotic translation elongation factor 1 alpha 1)	1.14	0.57	0.5
32	UBE2A (ubiquitin conjugating enzyme E2 A)	1.19	1.02	0.86
33	NTSR2 (neurotensin receptor 2)	1.5	0.99	0.66
34	TMEM139 (transmembrane protein 139)	1.04	0.56	0.54
35	TMED4 (transmembrane p24 trafficking protein 4)	1.18	0.66	0.56
36	RTTN (rotatin)	1.09	0.96	0.88
37	ACVR1B (activin A receptor type 1B)	0.93	0.8	0.86
38	MTHFS (methenyltetrahydrofolate synthetase)	0.99	0.97	0.98
39	PRSS23 (serine protease 23)	1.24	0.88	0.71
40	PRCD (photoreceptor disc component)	0.84	0.69	0.82
41	APOA5 (apolipoprotein A5)	1.13	1.11	0.98
42	ZNF57 (zinc finger protein 57)	0.95	0.7	0.74
43	CYP4F8 (cytochrome P450 family 4 subfamily F member 8)	1.1	0.95	0.86
44	GSTT2B (glutathione S-transferase theta 2B)	0.82	0.72	0.88
45	FITM1 (fat storage inducing transmembrane protein 1)	1.03	0.62	0.6
46	DRD3 (dopamine receptor D3)	0.81	0.77	0.95
